Literature values in patent US10258036B2, “Extract of Euodia suaveolens Scheff, repellent compositions and use thereof” (CHARABOT, priority 2009, dated 2019).
For at least one compound, name, drawing or mass did not settle the structure.

Test system: mosquitoes
Settings: above 20%; cited from earlier work

Q: Which average efficacy does the source give for `CCCCN(CCC(=O)OCC)C(C)=O` [IR3535, ethyl-butyl-acetyl-aminopropionate] here?
A: 4 h
